Reference: PMC12849889

Chains of the proteins cited; added tags and fusions are not shown. Lines headed by an entry give the natural chain unless they say otherwise; changes in a name come on top.
UniProt Q2QZ86: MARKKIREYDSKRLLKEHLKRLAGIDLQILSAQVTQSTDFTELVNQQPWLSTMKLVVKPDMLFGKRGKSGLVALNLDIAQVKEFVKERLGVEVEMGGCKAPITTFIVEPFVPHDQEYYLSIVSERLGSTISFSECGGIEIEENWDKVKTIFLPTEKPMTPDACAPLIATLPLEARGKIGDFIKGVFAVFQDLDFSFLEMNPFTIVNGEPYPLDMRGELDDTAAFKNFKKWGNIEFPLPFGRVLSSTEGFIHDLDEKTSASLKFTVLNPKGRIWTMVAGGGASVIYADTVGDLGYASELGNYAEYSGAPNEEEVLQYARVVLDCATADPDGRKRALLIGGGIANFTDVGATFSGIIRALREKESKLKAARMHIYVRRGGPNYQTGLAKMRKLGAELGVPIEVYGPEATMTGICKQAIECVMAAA

Assays:
[1] = target: T1, ADA2 (rice), Gal4 DNA-binding domain fusion in pGBKT7 (rice (Oryza sativa)) (UniProt Q75LL6); experiment: two-hybrid; ACLA2 in pGADT7 (AD), ADA2 or ACLB in pGBKT7 (BD); growth on SD-LTHA, control SD-LT
T1 sequence: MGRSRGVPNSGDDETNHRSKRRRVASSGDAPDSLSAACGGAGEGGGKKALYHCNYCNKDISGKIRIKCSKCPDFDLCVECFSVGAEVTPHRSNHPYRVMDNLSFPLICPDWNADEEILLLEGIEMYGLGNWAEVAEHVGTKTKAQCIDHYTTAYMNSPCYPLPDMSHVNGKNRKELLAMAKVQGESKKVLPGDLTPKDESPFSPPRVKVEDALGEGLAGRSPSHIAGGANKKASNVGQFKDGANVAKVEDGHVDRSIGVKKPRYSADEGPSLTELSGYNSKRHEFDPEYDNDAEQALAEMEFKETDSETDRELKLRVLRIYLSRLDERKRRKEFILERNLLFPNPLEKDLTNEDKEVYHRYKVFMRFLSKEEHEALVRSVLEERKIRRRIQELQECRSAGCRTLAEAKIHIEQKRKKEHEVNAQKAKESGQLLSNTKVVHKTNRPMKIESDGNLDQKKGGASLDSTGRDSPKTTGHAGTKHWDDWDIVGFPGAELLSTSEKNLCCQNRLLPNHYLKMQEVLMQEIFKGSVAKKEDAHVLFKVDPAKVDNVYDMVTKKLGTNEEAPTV

[2] = target: T2, GCN5-2×FLAG-2×HA (Ubipro::GCN5-2×FlAG-2×HA transgenic rice) (rice (Oryza sativa)) (UniProt Q338B9); experiment: co-IP; 14-day-old seedlings of GCN5-2×FLAG-2×HA transgenic or wild-type rice; RIPA buffer; anti-FLAG M2 magnetic beads overnight at 4 °C; blots with anti-HA, anti-ACLA2, anti-ADA2
T2 sequence: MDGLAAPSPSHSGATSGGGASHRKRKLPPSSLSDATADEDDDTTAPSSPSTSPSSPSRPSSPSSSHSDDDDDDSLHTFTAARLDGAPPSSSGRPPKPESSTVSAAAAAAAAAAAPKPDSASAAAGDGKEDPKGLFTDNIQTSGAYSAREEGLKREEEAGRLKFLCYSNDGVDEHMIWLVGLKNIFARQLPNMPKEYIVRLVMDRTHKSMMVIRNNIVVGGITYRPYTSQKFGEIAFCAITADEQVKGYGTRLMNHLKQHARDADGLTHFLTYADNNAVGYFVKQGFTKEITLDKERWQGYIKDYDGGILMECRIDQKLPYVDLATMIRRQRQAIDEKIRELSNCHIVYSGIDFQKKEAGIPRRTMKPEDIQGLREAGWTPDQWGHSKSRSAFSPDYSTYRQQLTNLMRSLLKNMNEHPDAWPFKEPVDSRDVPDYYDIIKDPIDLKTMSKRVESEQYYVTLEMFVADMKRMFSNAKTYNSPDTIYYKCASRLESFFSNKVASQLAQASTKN

[3] = target: T3, ADA2-FLAG (35S::ADA2-flag::NOS, tobacco) (rice (Oryza sativa)) (UniProt Q75LL6); experiment: co-IP; tobacco leaves co-expressing GCN5, ADA2-FLAG (or ADA2-KRH/A-FLAG) and ACLA2-ACLB from one vector; anti-FLAG beads; histones tested by immunoblots
T3 sequence: T1 sequence

[4] = target: ACLA2-GST (rice (Oryza sativa)); experiment: pull-down; GST or ACLA2-GST coupled with GST beads used to pull down ADA2-6×His; blots with anti-His and anti-GST
[5] = target: ACLA2-NLuc (rice (Oryza sativa)); experiment: split reporter; split-luciferase complementation (NLuc/CLuc of firefly luciferase) in Nicotiana benthamiana leaves, 48 h after infiltration, 1 mM luciferin
[6] = target: ACLA2-GFP (35S::ACLA2-GFP, rice protoplasts) (rice (Oryza sativa)); experiment: co-IP; rice protoplasts co-transfected with 35S::ADA2-FLAG and 35S::ACLA2-GFP or GFP; lysed in RIPA buffer; anti-GFP magnetic beads overnight at 4 °C; blots with anti-GFP and anti-FLAG

ACLA2 (rice ATP-citrate lyase subunit A2), Gal4 activation domain fusion in pGADT7 (from UniProt Q2QZ86)
binding [1]: binds

ACLA2, endogenous in rice seedlings (from UniProt Q2QZ86)
binding [2]: binds

histone H3, endogenous in tobacco leaves
binding [3]: binds

B1: ADA2-His (protein, UniProt Q75LL6 1-567)
chain: T1 sequence
binding [4]: binds

B2: CLuc-ADA2 (protein, UniProt Q75LL6 1-567)
chain: T1 sequence
binding [5]: binds

B3: ADA2-FLAG (35S::ADA2-FLAG, rice protoplasts) (protein, UniProt Q75LL6 1-567)
chain: T1 sequence
binding [6]: binds

These are yes or no findings as the source states them, for the method shown. A result given as binding can be weak or reduced; the word gives no strength. Sequences can lack the tags named with a protein. For part of these data: Binding seen in cells or lysates may run through a third protein.
